No constants are given. Whether binding was seen depends on the method and setting. Some results given as binding are weak or reduced against the parent protein; the word gives no strength.
Biological target: T1, rat lung aminopeptidase P (rat) (UniProt Q99MA2)
T1 sequence (looked up): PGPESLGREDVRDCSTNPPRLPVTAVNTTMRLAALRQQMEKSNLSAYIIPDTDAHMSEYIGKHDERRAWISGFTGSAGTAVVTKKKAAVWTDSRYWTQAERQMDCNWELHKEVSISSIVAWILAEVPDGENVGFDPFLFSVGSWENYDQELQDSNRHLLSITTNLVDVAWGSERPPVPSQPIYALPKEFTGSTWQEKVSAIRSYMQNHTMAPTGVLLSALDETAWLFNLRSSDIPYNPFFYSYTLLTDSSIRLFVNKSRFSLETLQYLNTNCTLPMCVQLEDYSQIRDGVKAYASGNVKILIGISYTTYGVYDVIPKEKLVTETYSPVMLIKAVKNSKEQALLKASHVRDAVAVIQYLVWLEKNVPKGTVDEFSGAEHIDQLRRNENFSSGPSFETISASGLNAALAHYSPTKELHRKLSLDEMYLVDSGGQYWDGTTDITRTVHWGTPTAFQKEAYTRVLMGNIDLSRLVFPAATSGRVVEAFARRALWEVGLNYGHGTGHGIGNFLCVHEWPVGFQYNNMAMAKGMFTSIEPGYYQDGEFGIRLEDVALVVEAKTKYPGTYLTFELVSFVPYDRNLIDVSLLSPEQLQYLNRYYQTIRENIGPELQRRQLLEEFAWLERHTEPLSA
Assay: inferred from inhibition of APPBz-^3H hydrolysis

- binding: binds
B1: des-Arg^1-bradykinin (peptide)
peptide: PPGFSPFR
